Laboratory results published in article PMC6378190.
These are yes or no findings as the source states them, for the method shown. Binding can be weak; no strength is given.

The chains behind the UniProt entries cited, without tags or fusion partners. Where a name states a change or a piece, a line headed by the entry shows the natural chain unless it says otherwise. Residues count along the entry.
UniProt P10997, residues 34-70: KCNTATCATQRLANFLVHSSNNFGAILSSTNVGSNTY
UniProt Q02818: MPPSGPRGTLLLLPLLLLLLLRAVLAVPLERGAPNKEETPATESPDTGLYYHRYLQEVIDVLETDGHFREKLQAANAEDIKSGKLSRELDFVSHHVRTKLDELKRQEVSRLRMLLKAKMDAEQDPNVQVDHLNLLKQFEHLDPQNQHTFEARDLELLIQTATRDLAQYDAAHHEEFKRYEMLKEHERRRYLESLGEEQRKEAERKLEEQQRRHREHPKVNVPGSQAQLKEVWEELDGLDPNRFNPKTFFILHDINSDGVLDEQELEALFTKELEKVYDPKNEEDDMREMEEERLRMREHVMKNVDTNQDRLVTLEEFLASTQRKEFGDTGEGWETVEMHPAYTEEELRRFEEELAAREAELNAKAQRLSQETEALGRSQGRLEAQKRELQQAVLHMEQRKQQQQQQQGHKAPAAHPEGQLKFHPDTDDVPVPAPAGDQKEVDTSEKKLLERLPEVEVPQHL

Biological target: human islet amyloid polypeptide (hIAPP) (human) (UniProt P10997)
Test: SEC; mtNUCB1 (10 µmol/L) and hIAPP (33 µmol/L) co-incubated at 37°C for 3 hours while stirred; Superdex200 26/60 PG; 20 mmol/L sodium phosphate, pH 7.6, 150 mmol/L NaCl; peaks tested by dot blot with α‐hIAPP and α‐NUCB1 antibodies; both purified

binding: binds
Substance: Ca^2+‐free sNUCB1 mutant (mtNUCB1) (from UniProt Q02818)
